Results reported in publication PMC11992678.
No constants are given. Whether binding was seen depends on the method and setting. Binding seen in cells or lysates may run through a third protein. Some binding calls cover weakened binding; strength is not graded here.

Protein sequences, listed by entry. Tags and fused reporters are not part of them.
UniProt Q9UKV8: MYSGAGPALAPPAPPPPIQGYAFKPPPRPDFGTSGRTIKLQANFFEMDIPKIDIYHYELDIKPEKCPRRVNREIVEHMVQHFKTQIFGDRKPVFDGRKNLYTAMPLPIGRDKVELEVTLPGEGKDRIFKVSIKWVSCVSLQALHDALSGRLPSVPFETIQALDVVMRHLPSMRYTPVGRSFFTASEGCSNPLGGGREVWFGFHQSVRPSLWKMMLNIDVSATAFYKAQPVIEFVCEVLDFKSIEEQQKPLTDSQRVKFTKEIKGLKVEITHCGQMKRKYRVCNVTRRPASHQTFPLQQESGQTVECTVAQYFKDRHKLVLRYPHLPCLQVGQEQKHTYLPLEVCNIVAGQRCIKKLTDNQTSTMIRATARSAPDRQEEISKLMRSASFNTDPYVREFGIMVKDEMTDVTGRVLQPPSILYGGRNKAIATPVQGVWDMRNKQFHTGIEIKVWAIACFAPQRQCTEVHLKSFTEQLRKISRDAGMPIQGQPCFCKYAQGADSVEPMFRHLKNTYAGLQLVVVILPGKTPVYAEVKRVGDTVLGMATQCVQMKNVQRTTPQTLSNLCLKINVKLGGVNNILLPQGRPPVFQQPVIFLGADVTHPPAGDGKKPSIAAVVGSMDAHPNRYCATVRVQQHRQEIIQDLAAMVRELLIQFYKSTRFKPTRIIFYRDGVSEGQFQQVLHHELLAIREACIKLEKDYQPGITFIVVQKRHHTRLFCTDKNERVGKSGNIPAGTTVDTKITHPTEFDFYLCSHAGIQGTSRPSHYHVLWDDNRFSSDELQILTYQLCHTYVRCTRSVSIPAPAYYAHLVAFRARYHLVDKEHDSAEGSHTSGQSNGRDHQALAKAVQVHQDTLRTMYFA
UniProt Q8NDV7: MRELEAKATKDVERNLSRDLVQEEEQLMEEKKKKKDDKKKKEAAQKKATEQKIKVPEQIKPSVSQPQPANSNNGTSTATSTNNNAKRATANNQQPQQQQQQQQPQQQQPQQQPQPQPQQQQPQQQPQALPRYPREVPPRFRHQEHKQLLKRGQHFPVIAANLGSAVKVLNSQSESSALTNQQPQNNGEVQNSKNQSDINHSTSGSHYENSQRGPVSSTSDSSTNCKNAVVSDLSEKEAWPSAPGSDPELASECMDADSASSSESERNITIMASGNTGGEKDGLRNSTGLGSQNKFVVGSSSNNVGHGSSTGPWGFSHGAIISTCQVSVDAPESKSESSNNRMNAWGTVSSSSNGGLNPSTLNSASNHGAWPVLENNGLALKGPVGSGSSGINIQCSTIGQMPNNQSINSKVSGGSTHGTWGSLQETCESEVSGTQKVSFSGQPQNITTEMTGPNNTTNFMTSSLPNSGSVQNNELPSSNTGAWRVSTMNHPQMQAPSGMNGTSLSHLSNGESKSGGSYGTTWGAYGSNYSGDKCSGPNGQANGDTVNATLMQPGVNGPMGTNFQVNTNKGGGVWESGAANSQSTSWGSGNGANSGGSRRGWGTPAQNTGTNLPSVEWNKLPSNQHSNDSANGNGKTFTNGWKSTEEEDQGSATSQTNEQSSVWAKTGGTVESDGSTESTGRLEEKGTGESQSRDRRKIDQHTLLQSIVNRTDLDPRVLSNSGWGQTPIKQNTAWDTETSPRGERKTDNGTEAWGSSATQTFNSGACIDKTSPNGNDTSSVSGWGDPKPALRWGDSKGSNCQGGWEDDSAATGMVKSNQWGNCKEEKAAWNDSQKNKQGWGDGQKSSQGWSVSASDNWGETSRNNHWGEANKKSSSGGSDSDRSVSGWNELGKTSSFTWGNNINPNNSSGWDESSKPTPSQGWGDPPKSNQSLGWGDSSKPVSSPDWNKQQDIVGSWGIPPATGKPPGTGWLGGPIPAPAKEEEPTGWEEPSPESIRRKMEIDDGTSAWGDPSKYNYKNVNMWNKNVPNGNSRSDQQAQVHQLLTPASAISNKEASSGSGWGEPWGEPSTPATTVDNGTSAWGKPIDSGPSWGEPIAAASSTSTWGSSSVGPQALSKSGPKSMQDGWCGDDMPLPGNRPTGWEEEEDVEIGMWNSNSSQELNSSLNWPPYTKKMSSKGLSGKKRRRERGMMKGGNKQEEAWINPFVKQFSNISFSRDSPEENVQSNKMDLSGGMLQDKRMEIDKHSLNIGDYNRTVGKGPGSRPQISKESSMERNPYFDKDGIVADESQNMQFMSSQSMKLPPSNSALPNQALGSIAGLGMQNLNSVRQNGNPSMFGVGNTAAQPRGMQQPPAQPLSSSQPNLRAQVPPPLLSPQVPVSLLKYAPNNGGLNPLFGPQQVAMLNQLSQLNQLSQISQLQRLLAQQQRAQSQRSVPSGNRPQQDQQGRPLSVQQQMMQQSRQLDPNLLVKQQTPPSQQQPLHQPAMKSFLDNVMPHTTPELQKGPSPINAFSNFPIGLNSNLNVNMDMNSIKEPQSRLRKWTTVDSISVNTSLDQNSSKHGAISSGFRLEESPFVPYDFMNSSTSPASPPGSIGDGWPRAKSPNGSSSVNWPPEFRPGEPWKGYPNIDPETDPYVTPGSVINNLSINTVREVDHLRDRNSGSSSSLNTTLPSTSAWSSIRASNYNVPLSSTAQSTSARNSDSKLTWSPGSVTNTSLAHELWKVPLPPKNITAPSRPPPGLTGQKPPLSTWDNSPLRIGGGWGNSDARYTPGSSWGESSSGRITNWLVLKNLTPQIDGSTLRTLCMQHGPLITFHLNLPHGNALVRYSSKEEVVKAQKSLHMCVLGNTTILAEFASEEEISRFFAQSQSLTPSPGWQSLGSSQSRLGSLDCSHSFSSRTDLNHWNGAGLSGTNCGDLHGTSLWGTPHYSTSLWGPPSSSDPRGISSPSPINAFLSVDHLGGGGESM

Tests used:
[1] = molecular target: AGO2 (human (endogenous in HEK293, HEK293T, A549, SK-N-BE(2), MCF7)) (UniProt Q9UKV8); experiment: co-IP; AGO2 IP or p53 IP from the cytoplasmic fraction of A549 cells (Fig 3G, 3H); blots for AGO2, p53 and TNRC6A
[2] = molecular target: AGO2 (human (endogenous in HEK293, HEK293T, A549, SK-N-BE(2), MCF7)) (UniProt Q9UKV8); experiment: co-IP; AGO2 IP or p53 IP from the nuclear fraction of A549 cells (Fig 3G, 3H); blots for AGO2, p53 and TNRC6A
[3] = molecular target: TNRC6A (GW182) (human (endogenous in A549)) (UniProt Q8NDV7); experiment: co-IP; TNRC6 IP from cytoplasmic and nuclear lysates of A549 cells treated with control siRNA or siAGO2 for 24 h (Fig 3I); blots for TNRC6, AGO2 and p53

binding [1] | binding [2] | binding [3] | Substance
binds | binds |  | TNRC6A (GW182) (from UniProt Q8NDV7 1-1962)
 |  | binds | p53 (from UniProt P04637 1-393)
